## Screening data

The results are deposited in PubChem (AID1224904; Broad Institute, 2016).

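293T-iDUX4 cells carrying a ZSCAN4-driven Gaussia luciferase and a tet-on Italica luciferase control; the gap between the two luminescence signals is read after 24 h. The test concentration is not given here. Percent difference between the Gaussia and Italica channels; more negative values mean more selective suppression of the DUX4 reporter, and higher values mean less activity.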

Values are in %. How 0% and 100% were set is not given here. Common to all entries: measured here: selective DUX4 reporter inhibition. This is a side read-out of the assay, for part of the compounds, not drawn at random.

{"smiles": "COc1ccc2c3c(n(C)c2c1)[C@H](CO)N(C)CC31CCN(S(=O)(=O)c2cccs2)CC1", "Gaussia minus Italica difference (%)": "-5.855"}
{"smiles": "N#Cc1ccc(-c2ccc(C3[C@@H]4CN(Cc5ccccc5F)C[C@H]3N4)cc2)cc1", "stereo": "some centres not stated", "Gaussia minus Italica difference (%)": "-13.98"}
{"smiles": "O=C(C[C@@H]1CC[C@H]2[C@@H](COC[C@H](O)CN2Cc2ccc(Oc3ccccc3)cc2)O1)Nc1nccs1", "Gaussia minus Italica difference (%)": "-7.022"}
{"smiles": "O=C(C[C@@H]1CC[C@H]2[C@@H](COC[C@@H](O)CN2Cc2cccc(Cl)c2)O1)NCC1CCCCC1", "Gaussia minus Italica difference (%)": "-7.24"}
{"smiles": "C/C=C/c1ccc([C@@H]2[C@H](CO)N3C(=O)CN(C(=O)Nc4cccc(OC)c4)C[C@@H]23)cc1", "Gaussia minus Italica difference (%)": "-24.12"}
{"smiles": "Cc1cccc(S(=O)(=O)N2CCCCN3[C@@H](CO)[C@H](c4ccc(C#C[C@H](C)O)cc4)[C@@H]3C2)c1", "Gaussia minus Italica difference (%)": "-11.07"}
{"smiles": "O=C(C[C@H]1CC[C@H]2[C@@H](COC[C@H](O)CN2Cc2ccc3c(c2)OCO3)O1)Nc1ccc(-c2ccccc2)cc1", "Gaussia minus Italica difference (%)": "4.236"}
{"smiles": "C[C@@H]1CN([C@@H](C)CO)C(=O)CCCn2nncc2CO[C@@H]1CN(C)Cc1ccccc1C(F)(F)F", "Gaussia minus Italica difference (%)": "-2.374"}
{"smiles": "O=C(C[C@@H]1CC[C@@H]2[C@H](COC[C@@H](O)CN2Cc2cc(F)ccc2F)O1)N1CCc2ccccc2C1", "Gaussia minus Italica difference (%)": "1.353"}
{"smiles": "CCCNC(=O)N1CC2(CN(CC3CCCCC3)C2)c2c(n(C)c3cc(OC)ccc23)[C@H]1CO", "Gaussia minus Italica difference (%)": "-9.75"}
{"smiles": "Cc1cccc(-c2ccc([C@H]3[C@@H](CO)N4CCCCN(S(=O)(=O)c5ccccc5F)C[C@H]34)cc2)c1", "Gaussia minus Italica difference (%)": "-13.15"}
{"smiles": "COc1ccccc1C#Cc1ccc2c(c1)[C@H]1[C@H](CCN1C(=O)c1cccc(F)c1)[C@H](CO)N2", "Gaussia minus Italica difference (%)": "-13.81"}
{"smiles": "C[C@H](C(=O)N(C)C[C@@H]1OCc2ccccc2-c2c(n(C)c3ccccc23)C(=O)N([C@H](C)CO)C[C@H]1C)c1ccccc1", "Gaussia minus Italica difference (%)": "-6.34"}
{"smiles": "C[C@@H](NC(=O)N(C)C[C@@H]1OCc2ccccc2-c2ccccc2C(=O)N([C@@H](C)CO)C[C@@H]1C)c1ccccc1", "Gaussia minus Italica difference (%)": "-10.22"}
{"smiles": "CCC(=O)N1CC2(C1)CN(Cc1cc(F)ccc1F)[C@@H](CO)c1[nH]c3cc(OC)ccc3c12", "Gaussia minus Italica difference (%)": "-2.663"}
{"smiles": "Cc1cccc(S(=O)(=O)N2CCCCN3[C@H](C2)[C@H](c2ccc(C#C[C@H](C)O)cc2)[C@@H]3CO)c1", "Gaussia minus Italica difference (%)": "-6.595"}
{"smiles": "Cc1ccccc1S(=O)(=O)N1CCCCN2[C@@H](CO)[C@H](c3ccc(-c4cccnc4)cc3)[C@@H]2C1", "Gaussia minus Italica difference (%)": "-14.35"}
{"smiles": "C[C@@H]1CN([C@@H](C)CO)C(=O)c2c(c3ccccc3n2C)-c2ccccc2CO[C@H]1CN(C)C(=O)Cc1ccccc1", "Gaussia minus Italica difference (%)": "-3.79"}
{"smiles": "COc1cccc(C#Cc2ccc([C@H]3[C@@H](CO)N4C(=O)CN(C(=O)c5ccccc5)C[C@@H]34)cc2)c1", "Gaussia minus Italica difference (%)": "-5.797"}
{"smiles": "Cc1ccc(S(=O)(=O)N2C[C@H](O)COC[C@@H]3O[C@H](CC(=O)NCc4ccc(Cl)c(Cl)c4)CC[C@H]32)cc1", "Gaussia minus Italica difference (%)": "11.56"}
{"smiles": "COc1ccccc1C#Cc1ccc([C@@H]2[C@H]3CN(S(C)(=O)=O)CCCCN3[C@H]2CO)cc1", "Gaussia minus Italica difference (%)": "2.578"}
{"smiles": "COc1ccc(-c2ccc3c(c2)[C@@H]2[C@@H](CCN2C(=O)NC2CCCCC2)[C@H](CO)N3C)cc1", "Gaussia minus Italica difference (%)": "23.67"}
{"smiles": "C[C@H](NC(=O)C[C@@H]1CC[C@H]2[C@@H](COC[C@@H](O)CN2Cc2ccc(C(F)(F)F)cc2)O1)c1ccccc1", "Gaussia minus Italica difference (%)": "-8.908"}
{"smiles": "COc1ccc(CN2CC3(CCN(C(=O)C4CCC4)CC3)c3c(n(C)c4cc(OC)ccc34)[C@H]2CO)cc1", "Gaussia minus Italica difference (%)": "-18.7"}
{"smiles": "O=C(Cc1ccccn1)NCC[C@@H]1CC[C@@H](NC(=O)Nc2ccc(C(F)(F)F)cc2)[C@@H](CO)O1", "Gaussia minus Italica difference (%)": "-13.92"}
{"smiles": "CN(C)C(=O)c1cccc(-c2ccc([C@H]3[C@@H](C#N)N(C(=O)C4CC4)[C@@H]3CO)cc2)c1", "Gaussia minus Italica difference (%)": "6.888"}
{"smiles": "COc1ccc2c3c([nH]c2c1)[C@@H](CO)N(Cc1cc(F)ccc1F)CC31CN(C(C)=O)C1", "Gaussia minus Italica difference (%)": "0.5918"}
{"smiles": "O=C(C[C@@H]1CC[C@H]2[C@@H](COC[C@@H](O)CN2S(=O)(=O)c2ccccc2Cl)O1)NCc1ccccc1Cl", "Gaussia minus Italica difference (%)": "-13.2"}
{"smiles": "N#C[C@H]1[C@H](c2ccccc2C2=CCCC2)[C@@H](CO)N1C(=O)Cc1ccncc1", "Gaussia minus Italica difference (%)": "-2.016"}
{"smiles": "C/C=C/c1ccc([C@@H]2[C@H](CO)N(CC3CC3)C23CN(C(=O)c2ccc4c(c2)OCO4)C3)cc1", "Gaussia minus Italica difference (%)": "-12.43"}
{"smiles": "COc1cccc(S(=O)(=O)Nc2ccc3c(c2)[C@@H]2C[C@@H](CC(=O)NCc4ccccc4F)O[C@@H](CO)[C@@H]2O3)c1", "Gaussia minus Italica difference (%)": "-3.156"}
{"smiles": "C[C@H](CO)N1C[C@H](C)[C@@H](CN(C)Cc2ccc3c(c2)OCO3)OCc2ccccc2-c2c(n(C)c3ccccc23)C1=O", "Gaussia minus Italica difference (%)": "-14.13"}

Repeated from the top, 4 entries:

SMILES,Gaussia minus Italica difference (%)
COc1ccc2c3c(n(C)c2c1)[C@H](CO)N(C)CC31CCN(S(=O)(=O)c2cccs2)CC1,-5.855
N#Cc1ccc(-c2ccc(C3[C@@H]4CN(Cc5ccccc5F)C[C@H]3N4)cc2)cc1 (some centres not stated),-13.98
O=C(C[C@@H]1CC[C@H]2[C@@H](COC[C@H](O)CN2Cc2ccc(Oc3ccccc3)cc2)O1)Nc1nccs1,-7.022
O=C(C[C@@H]1CC[C@H]2[C@@H](COC[C@@H](O)CN2Cc2cccc(Cl)c2)O1)NCC1CCCCC1,-7.24